# Out of some 400,000 compounds screened, about 13,000 (3.2%) were called active. A call without a number means that no potency is given here. The shares of active, inactive and inconclusive entries below differ from those in the screen. Calls come from the whole dose curve; as a rule, active = well fitted cell-killing curve with a large enough effect; inconclusive = small, poorly fitted or top-dose-only effect, or effect the other way; inactive = flat fitted curve, though single readings scatter. Potencies beside an inconclusive call are fits to weak or partial responses and may not hold up.
# Assay: qHTS assay for MDR1-selective chemotherapeutics: Primary screen using the drug-selected MDR subline cells KB-V1; note: nearly all actives have a fitted effect of over 60% in size
# Details: KB-V1 MDR cells viability, CellTiter-Glo, 72 h; series mostly up to 46.1 µM
# Summary of the method: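 Cells of the MDR subline KB-V1 are plated, dosed with compound at multiple concentrations, and incubated 72 h at 37 degrees C; CellTiter-Glo is then added and luminescence read after 10 min.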
# Potency is the fitted concentration of half-maximal effect.
row,Compound,Potency
1,COc1ccc(Br)cc1CN(C)CC(O)COc1ccc(Br)cc1 (configuration not stated),inactive
2,COc1cccc(C(C)NC(=O)Nc2ccccc2Cl)c1 (configuration not stated),inactive
3,CCc1cccc(CC)c1NC(=O)c1cccc(NC(=O)c2ccccc2)c1,"inconclusive: 3.66 µM [cytotoxic, partial curve]"
4,Cc1ccccc1-c1nnc(-c2ccc(Cl)cc2)o1,inactive
5,COc1ccc(N2CCN(C(=O)c3cccc(N4C(=O)C5C6C=CC(C6)C5C4=O)c3)CC2)cc1 (configuration not stated),inactive
6,CCOC(=O)CCc1ccc(NC(=O)/C=C/c2ccc([N+](=O)[O-])o2)cc1,"inconclusive: 18.4 µM [cytotoxic, single point]"
7,Cn1ncc(N=Cc2ccccc2)c1C(=O)Nc1cccc(Cl)c1,"inconclusive: 29.1 µM [cytotoxic, single point]"
8,CCn1cc2nc(SCc3cc(C)ccc3C)n(Cc3ccc(OC)cc3)c(=O)c2n1,"inconclusive: 18.4 µM [cytotoxic, single point]"
9,CSc1nc(Oc2ccc3ccccc3c2)c2sccc2n1,"inconclusive: 29.1 µM [cytotoxic, single point]"
10,Cc1cccc(OCCCn2c(CCNC(=O)C(C)(C)C)nc3ccccc32)c1,"inconclusive: 6.51 µM [cytotoxic, full curve, poor fit]"
11,Cc1nc2cc(-c3ccccc3)nn2c(C)c1CCC(=O)NC(C)c1ccc2c(c1)OCCO2 (configuration not stated),inactive
12,COC(=O)c1c(NC(=O)Cn2nc(C(F)F)cc2C(F)F)sc(C)c1C,inactive
13,O=C1NC[C@H](CCCCN2C[C@H](Cc3ccc(O)cc3)N(CCc3ccccc3)C(=O)C2=O)N(CCc2ccc(O)cc2)C1=O,inactive
14,CC(C)CNC(=O)C1CCN(CC2CCCCC2)CC1,inactive
15,Cc1cc(NC(=O)c2c(-c3ccccc3Cl)noc2C)no1,active: 13 µM
16,Cc1cc(C)nc(-n2nc(C)cc2NC(=O)CN2CCCC(C)C2)n1 (configuration not stated),inactive
17,COc1ccc(S(=O)(=O)Nc2cc3c(cc2NCc2ccccc2)n(C)c(=O)n3C)cc1,inactive
18,FC(F)(F)c1ccc(N2CCN(c3ncnc4c3nnn4Cc3ccccc3)CC2)nc1,inactive
19,COc1cccc(C(=O)N2CCC2(C)C(=O)O)c1 (configuration not stated),inactive
20,COc1ccc(NC(=O)COc2ccc3c(c2)CCC3)cc1S(N)(=O)=O,"inconclusive: 25.9 µM [rising, single point]"
21,CCOC(=O)c1cccc(C(=O)OCC)n1,"inconclusive: 16.4 µM [rising, partial curve, poor fit]"
22,O=[N+]([O-])c1ccc(O)c(/C=N/Nc2nc3ccccc3[nH]2)c1,"inconclusive: 2.91 µM [cytotoxic, full curve]"

# As a working copy, some entries already given:
row,Compound,Potency
6,CCOC(=O)CCc1ccc(NC(=O)/C=C/c2ccc([N+](=O)[O-])o2)cc1,"inconclusive: 18.4 µM [cytotoxic, single point]"
7,Cn1ncc(N=Cc2ccccc2)c1C(=O)Nc1cccc(Cl)c1,"inconclusive: 29.1 µM [cytotoxic, single point]"

# Source: PubChem BioAssay AID1347076 (National Center for Advancing Translational Sciences (NCATS), 2019)
